Data published in paper PMC7819943, “Rice protein-binding microarrays: a tool to detect cis-acting elements near promoter regions in rice”.
The other results are listed elsewhere or left out.

By UniProt entry, the sequences of proteins in these tests, tags left out.
UniProt Q0JBA9, entry or part of it: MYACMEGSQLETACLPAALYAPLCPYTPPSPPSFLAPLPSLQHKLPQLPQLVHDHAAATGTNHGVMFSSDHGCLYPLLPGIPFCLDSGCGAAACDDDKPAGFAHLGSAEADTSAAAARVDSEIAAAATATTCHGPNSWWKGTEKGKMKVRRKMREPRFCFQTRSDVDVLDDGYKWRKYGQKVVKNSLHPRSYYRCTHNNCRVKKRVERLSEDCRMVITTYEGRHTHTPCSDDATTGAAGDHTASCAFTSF

molecular target: OsWRKY34 (Oryza sativa, UniProt Q0JBA9 1-250); assay: protein-binding microarray (RPBM); PBS, 2% BSA, 51.3 ng/ul salmon testes DNA, 50 uM zinc acetate, 200 nM TF, 25 C, 1 h; high values mean tight binding; details: protein: recombinant; tags: N-terminal polyhistidine and DsRed monomer fusion (pET32a); label: CyDye5-dUTP incorporated in the synthesized complementary strand; 3' TTTTT single-stranded linker to array surface; dsDNA, one strand shown
Outline: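 An Axon 4000B scanner gave the binding signal as per-feature fluorescence intensity in arbitrary units. This followed washing of a custom Agilent array that had been incubated for 1 h at 25 °C with 200 nM protein in PBS, 2% BSA, salmon testes DNA and 50 µM zinc acetate. The proteins were transcription factors fused at the N-terminus to polyhistidine and DsRed, expressed in E. coli BL21-CodonPlus and purified on Ni–NTA.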

| Sequence | binding signal |
| --- | --- |
| TATTAATATTATTTTACTTACTCTGGAGCTTCTTGTCCATCGGAGTCACCTAGTGCAG | 9870 fluorescence intensity (a.u.) |
| GTACGGTAAATTCTAGTTTAACTCTAAGTCATTTTATAATCGGAGTCACCTAGTGCAG | 8610 fluorescence intensity (a.u.) |
| TTAATTGGCTTTCTCGTTTTGTGTGCCCCGCTTTTAATATCGGAGTCACCTAGTGCAG | 9300 fluorescence intensity (a.u.) |
| TTCTACTTCTACACCTCGCAATGAAAAAAACAAATTTGACCGGAGTCACCTAGTGCAG | 8060 fluorescence intensity (a.u.) |
| TTGTCCAGTTTTCACTGTGTCTACACCGTTTTGTGTATTTCGGAGTCACCTAGTGCAG | 10000 fluorescence intensity (a.u.) |
| GCCCACTTCTGCCCAAATCGCATGTCCCGTCCAGGTTCACCGGAGTCACCTAGTGCAG | 10400 fluorescence intensity (a.u.) |
| CCGCTTCCATCCATCCATCCATCCATCTCCCGTGGACTTGCGGAGTCACCTAGTGCAG | 13300 fluorescence intensity (a.u.) |
| CATTTTGTTAGATTGAGTCTTTTCTTTCTTCTTCATCTATCGGAGTCACCTAGTGCAG | 8400 fluorescence intensity (a.u.) |
| ACATGTCATACACACAACGTTTTATAGTCCGTGCTGCAGCCGGAGTCACCTAGTGCAG | 9630 fluorescence intensity (a.u.) |
| GGACCACATGGACAGGTGCCCATCCAGCTCGGCTGTTCAACGGAGTCACCTAGTGCAG | 8320 fluorescence intensity (a.u.) |
| ACGTCCTCGGACCGCCTGACATCCCGTTGTATTTCTTGCGCGGAGTCACCTAGTGCAG | 8080 fluorescence intensity (a.u.) |
| CAATCACATCCGCGCGCATTTGGCCTGCGCCTTCAAATTTCGGAGTCACCTAGTGCAG | 12700 fluorescence intensity (a.u.) |
| ATTGTTCTGCTGCCTTGTGGAATTCCATGATTCATTTTTCCGGAGTCACCTAGTGCAG | 8870 fluorescence intensity (a.u.) |
| TCGCCCCGCCATGCCGCTCACCGTCCTCGCGCCTTGCCTGCGGAGTCACCTAGTGCAG | 8980 fluorescence intensity (a.u.) |
| TTTTGTTTGTTTTGATGTCGTGTCATGTAGATACTCGTACCGGAGTCACCTAGTGCAG | 9370 fluorescence intensity (a.u.) |
| TTCTCAATGTTCTTTTGGCTTTAGGCATATAATTTAGAGACGGAGTCACCTAGTGCAG | 9480 fluorescence intensity (a.u.) |
| GCTATTTACTTGCTGGCATCAAGGGACAGTGTCATCACTTCGGAGTCACCTAGTGCAG | 8620 fluorescence intensity (a.u.) |
| TACCGCCGGTTTGACCAACTACCACAACCCGGTCTGACCGCGGAGTCACCTAGTGCAG | 8530 fluorescence intensity (a.u.) |
| ATCTTTGCACAGAAACTCATCTCCTCATCGTTTATACTTACGGAGTCACCTAGTGCAG | 8050 fluorescence intensity (a.u.) |
| ATCCTCTTGTTTCGTACAGGTCACTTAAATAGTTATAAAACGGAGTCACCTAGTGCAG | 8300 fluorescence intensity (a.u.) |
| TATTTGTTACTAGTATTTCTTTTAGTTTTGGTACCGCTAGCGGAGTCACCTAGTGCAG | 11200 fluorescence intensity (a.u.) |

| Sequence | binding signal |
| --- | --- |
| TGCGCTACTATTGTTGTGGCTTGTGCTTTTCAGTTTCCACCGGAGTCACCTAGTGCAG | 8800 fluorescence intensity (a.u.) |
| CTTATTTCTTTTCCAGTTAGGCATATATTATCTGTTTTCTCGGAGTCACCTAGTGCAG | 8700 fluorescence intensity (a.u.) |
| AACTCTGATACGATGTGATATGCTGGATCGGGGAGGGGCGCGGAGTCACCTAGTGCAG | 15000 fluorescence intensity (a.u.) |
| TGTTGATAAAGGCTTCGATGCTGCACACGACCTTTCTTCTCGGAGTCACCTAGTGCAG | 9170 fluorescence intensity (a.u.) |
| CTCCTACTCATCATCATCGTCTTCTTCTTCTTGCCCAACTCGGAGTCACCTAGTGCAG | 12100 fluorescence intensity (a.u.) |
| CACAGCCACAGAAGACCCAAAGATGCGATTTTTTTTCTTCCGGAGTCACCTAGTGCAG | 9330 fluorescence intensity (a.u.) |
| TATTCTGCACAACACTCTGAATCACTCATCACTCACTAGTCGGAGTCACCTAGTGCAG | 8192 fluorescence intensity (a.u.) |
| CCGTAGCCGACTCGTCCTCGTCTTCCAGCTCAGCTGCAGCCGGAGTCACCTAGTGCAG | 8470 fluorescence intensity (a.u.) |
| GTCGATCCGCGGTTTCTCGAAGACGTTGTTGTGGTCTCATCGGAGTCACCTAGTGCAG | 9290 fluorescence intensity (a.u.) |
| TACCTGTTTGTTTTTAAGTTCAGATATTATATTACGTAACCGGAGTCACCTAGTGCAG | 8930 fluorescence intensity (a.u.) |
| GTTCCTCTCGCGCCTCACCACCGAATCACCCTTTTGCCTTCGGAGTCACCTAGTGCAG | 8990 fluorescence intensity (a.u.) |
| TGGCTCTTGCATCTCCACACACACACACACATTCAATTCACGGAGTCACCTAGTGCAG | 9880 fluorescence intensity (a.u.) |
| GCTTTCTTGTCAAAACAGATCATGCCTTTTGTTTGTTCCACGGAGTCACCTAGTGCAG | 9160 fluorescence intensity (a.u.) |
| ATGTCACGGTCATTTTTACTTCTTTACCGGCTGGGATAAGCGGAGTCACCTAGTGCAG | 9070 fluorescence intensity (a.u.) |
| GGTTGCTGTGGTTGGCGAGGTGGGGTGGGGCTTGGAGTAACGGAGTCACCTAGTGCAG | 27400 fluorescence intensity (a.u.) |
| GAAAGCCATTCTTCTTTATGCTCAGCTGTCGGATTTGCCTCGGAGTCACCTAGTGCAG | 9010 fluorescence intensity (a.u.) |
| GAGTTTGCTATGGTACCTGCTCTTACCCGCATGGCGCAAGCGGAGTCACCTAGTGCAG | 9180 fluorescence intensity (a.u.) |
| GGCATTTGGGTGTTATGCATGCCGGCCGGCCCGTACGTACCGGAGTCACCTAGTGCAG | 11700 fluorescence intensity (a.u.) |
| AACCCAAGTTTCATCTTTCTTCCACATCTCCCAACTCTCGCGGAGTCACCTAGTGCAG | 8990 fluorescence intensity (a.u.) |
| AAATATATTTATAGCTGTCTTATAGTCTACTATTGTACCTCGGAGTCACCTAGTGCAG | 8560 fluorescence intensity (a.u.) |
| TACAATTTTGTTTTTGACAACTTTTTCACATGAGTTCATTCGGAGTCACCTAGTGCAG | 8270 fluorescence intensity (a.u.) |

Some of the entries so far, with bars between the fields.
Sequence | binding signal
CCGTAGCCGACTCGTCCTCGTCTTCCAGCTCAGCTGCAGCCGGAGTCACCTAGTGCAG | 8470 fluorescence intensity (a.u.)
GTCGATCCGCGGTTTCTCGAAGACGTTGTTGTGGTCTCATCGGAGTCACCTAGTGCAG | 9290 fluorescence intensity (a.u.)
TACCTGTTTGTTTTTAAGTTCAGATATTATATTACGTAACCGGAGTCACCTAGTGCAG | 8930 fluorescence intensity (a.u.)
